In the supplement of paper PMC8728848:
Some of the results follow.

How the values were obtained:
Assay in all cases: glycan array binding signal (z-score within array); higher = stronger binding
Settings in all cases: glycan notation: IUPAC condensed, linker removed
[1] = biological target: Gal(b1-4)GlcNAc(b1-3)Gal(b1-3)GlcNAc
Outline: (§1)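 From the Consortium for Functional Glycomics database, 3228 arrays were curated, keeping only those whose protein sequence was available. Binding is given as a within-array Z-score averaged across arrays sharing a protein sequence and across linkers. Negative Z-scores can be read as non-binding.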

[2] = biological target: Gal(b1-4)GlcNAc(b1-3)Gal(b1-4)Glc
Outline: as §1

[3] = biological target: Gal(b1-4)GlcNAc(b1-3)Gal(b1-4)GlcNAc
Outline: as §1

[4] = biological target: Gal(b1-4)GlcNAc(b1-3)Gal(b1-4)GlcNAc(b1-2)Man(a1-3)[Gal(b1-4)GlcNAc(b1-3)Gal(b1-4)GlcNAc(b1-2)Man(a1-6)]Man(b1-4)GlcNAc(b1-4)GlcNAc
Outline: as §1

[5] = biological target: Gal(b1-4)GlcNAc(b1-3)Gal(b1-4)GlcNAc(b1-2)Man(a1-3)[Gal(b1-4)GlcNAc(b1-3)Gal(b1-4)GlcNAc(b1-2)Man(a1-6)]Man(b1-4)GlcNAc(b1-4)[Fuc(a1-6)]GlcNAc
Outline: as §1

[6] = biological target: Gal(b1-4)GlcNAc(b1-3)Gal(b1-4)GlcNAc(b1-2)[Gal(b1-4)GlcNAc(b1-3)Gal(b1-4)GlcNAc(b1-6)]Man(a1-6)[Gal(b1-4)GlcNAc(b1-3)Gal(b1-4)GlcNAc(b1-2)Man(a1-3)]Man(b1-4)GlcNAc(b1-4)GlcNAc
Outline: as §1

[7] = biological target: Gal(b1-4)GlcNAc(b1-3)Gal(b1-4)GlcNAc(b1-2)[Gal(b1-4)GlcNAc(b1-3)Gal(b1-4)GlcNAc(b1-6)]Man(a1-6)[Gal(b1-4)GlcNAc(b1-3)Gal(b1-4)GlcNAc(b1-2)Man(a1-3)]Man(b1-4)GlcNAc(b1-4)[Fuc(a1-6)]GlcNAc
Outline: as §1

[8] = biological target: Gal(b1-4)GlcNAc(b1-3)Gal(b1-4)GlcNAc(b1-3)Gal(b1-4)GlcNAc
Outline: as §1

[9] = biological target: Gal(b1-4)GlcNAc(b1-3)Gal(b1-4)GlcNAc(b1-3)Gal(b1-4)GlcNAc(b1-2)Man(a1-3)[Gal(b1-4)GlcNAc(b1-3)Gal(b1-4)GlcNAc(b1-3)Gal(b1-4)GlcNAc(b1-2)Man(a1-6)]Man(b1-4)GlcNAc(b1-4)GlcNAc
Outline: as §1

[10] = biological target: Gal(b1-4)GlcNAc(b1-3)Gal(b1-4)GlcNAc(b1-3)Gal(b1-4)GlcNAc(b1-2)Man(a1-3)[Gal(b1-4)GlcNAc(b1-3)Gal(b1-4)GlcNAc(b1-3)Gal(b1-4)GlcNAc(b1-2)Man(a1-6)]Man(b1-4)GlcNAc(b1-4)[Fuc(a1-6)]GlcNAc
Outline: as §1

[11] = biological target: Gal(b1-4)GlcNAc(b1-3)Gal(b1-4)GlcNAc(b1-3)Gal(b1-4)GlcNAc(b1-2)[Gal(b1-4)GlcNAc(b1-3)Gal(b1-4)GlcNAc(b1-3)Gal(b1-4)GlcNAc(b1-6)]Man(a1-6)[Gal(b1-4)GlcNAc(b1-3)Gal(b1-4)GlcNAc(b1-3)Gal(b1-4)GlcNAc(b1-2)Man(a1-3)]Man(b1-4)GlcNAc(b1-4)[Fuc(a1-6)]GlcNAc
Outline: as §1

[12] = biological target: Gal(b1-4)GlcNAc(b1-3)Gal(b1-4)GlcNAc(b1-3)Gal(b1-4)GlcNAc(b1-3)Gal(b1-4)GlcNAc(b1-2)Man(a1-3)[Gal(b1-4)GlcNAc(b1-3)Gal(b1-4)GlcNAc(b1-3)Gal(b1-4)GlcNAc(b1-3)Gal(b1-4)GlcNAc(b1-2)Man(a1-6)]Man(b1-4)GlcNAc(b1-4)GlcNAc
Outline: as §1

[13] = biological target: Gal(b1-4)GlcNAc(b1-3)Gal(b1-4)GlcNAc(b1-3)Gal(b1-4)GlcNAc(b1-3)Gal(b1-4)GlcNAc(b1-2)Man(a1-3)[Gal(b1-4)GlcNAc(b1-3)Gal(b1-4)GlcNAc(b1-3)Gal(b1-4)GlcNAc(b1-3)Gal(b1-4)GlcNAc(b1-2)Man(a1-6)]Man(b1-4)GlcNAc(b1-4)[Fuc(a1-6)]GlcNAc
Outline: as §1

[14] = biological target: Gal(b1-4)GlcNAc(b1-3)Gal(b1-4)GlcNAc(b1-3)Gal(b1-4)GlcNAc(b1-3)Gal(b1-4)GlcNAc(b1-2)[Gal(b1-4)GlcNAc(b1-3)Gal(b1-4)GlcNAc(b1-3)Gal(b1-4)GlcNAc(b1-3)Gal(b1-4)GlcNAc(b1-6)]Man(a1-6)[Gal(b1-4)GlcNAc(b1-3)Gal(b1-4)GlcNAc(b1-3)Gal(b1-4)GlcNAc(b1-3)Gal(b1-4)GlcNAc(b1-2)Man(a1-3)]Man(b1-4)GlcNAc(b1-4)[Fuc(a1-6)]GlcNAc
Outline: as §1

[15] = biological target: Gal(b1-4)GlcNAc(b1-3)Gal(b1-4)GlcNAc(b1-3)Gal(b1-4)GlcNAc(b1-3)Gal(b1-4)GlcNAc(b1-3)Gal(b1-4)GlcNAc(b1-2)Man(a1-3)[Gal(b1-4)GlcNAc(b1-3)Gal(b1-4)GlcNAc(b1-3)Gal(b1-4)GlcNAc(b1-3)Gal(b1-4)GlcNAc(b1-3)Gal(b1-4)GlcNAc(b1-2)Man(a1-6)]Man(b1-4)GlcNAc(b1-4)GlcNAc
Outline: as §1

[16] = biological target: Gal(b1-4)GlcNAc(b1-3)Gal(b1-4)GlcNAc(b1-3)Gal(b1-4)GlcNAc(b1-3)Gal(b1-4)GlcNAc(b1-3)Gal(b1-4)GlcNAc(b1-2)Man(a1-3)[Gal(b1-4)GlcNAc(b1-3)Gal(b1-4)GlcNAc(b1-3)Gal(b1-4)GlcNAc(b1-3)Gal(b1-4)GlcNAc(b1-3)Gal(b1-4)GlcNAc(b1-2)Man(a1-6)]Man(b1-4)GlcNAc(b1-4)[Fuc(a1-6)]GlcNAc
Outline: as §1

[17] = biological target: Gal(b1-4)GlcNAc(b1-3)Gal(b1-4)GlcNAc(b1-3)Gal(b1-4)GlcNAc(b1-3)Gal(b1-4)GlcNAc(b1-3)Gal(b1-4)GlcNAc(b1-2)[Gal(b1-4)GlcNAc(b1-3)Gal(b1-4)GlcNAc(b1-3)Gal(b1-4)GlcNAc(b1-3)Gal(b1-4)GlcNAc(b1-3)Gal(b1-4)GlcNAc(b1-6)]Man(a1-6)[Gal(b1-4)GlcNAc(b1-3)Gal(b1-4)GlcNAc(b1-3)Gal(b1-4)GlcNAc(b1-3)Gal(b1-4)GlcNAc(b1-3)Gal(b1-4)GlcNAc(b1-2)Man(a1-3)]Man(b1-4)GlcNAc(b1-4)[Fuc(a1-6)]GlcNAc
Outline: as §1

[18] = biological target: Gal(b1-4)GlcNAc(b1-3)Gal(b1-4)GlcNAc(b1-3)Gal(b1-4)GlcNAc(b1-3)Gal(b1-4)GlcNAc(b1-3)Gal(b1-4)GlcNAc(b1-3)Gal(b1-4)GlcNAc(b1-2)Man(a1-3)[Gal(b1-4)GlcNAc(b1-3)Gal(b1-4)GlcNAc(b1-3)Gal(b1-4)GlcNAc(b1-3)Gal(b1-4)GlcNAc(b1-3)Gal(b1-4)GlcNAc(b1-3)Gal(b1-4)GlcNAc(b1-2)Man(a1-6)]Man(b1-4)GlcNAc(b1-4)GlcNAc
Outline: as §1

[19] = biological target: Gal(b1-4)GlcNAc(b1-3)Gal(b1-4)GlcNAc(b1-3)GalNAc
Outline: as §1

B1: SabA (Helicobacter pylori) (protein)
chain: MGSSHHHHHHSSGLVPRGSHMENLYFQGEDNGFFVSAGYQIGEAVQMVKNTGELKNLNEKYEQLSQYLNQVASLKQSIQNANNIELVNSSLNYLKSFTNNNYNSTTQSPIFNAVQAVITSVLGFWSLYAGNYFTFFVGKKVGDSGQPASVQGNPPFKTIIENCSGIENCAMDQTTYDKMKKLAEDLQAAQTNSATKGNNLCALSGCAATDSTSNPPNSTVSNALNLAQQLMDLIANTKTAMMWKNIVISGVSNTSGAITSTNYPTQYAVFNNIKAMIPILQQAVTLSQSNHTLSASLQAQATGSQTNPKFAKDIYTFAQNQKQVISYAQDIFNLFNSIPAEQYKYLEKAYLKIPNAGSTPTNPYRQVVNLNQEVQTIKNNVSYYGNRVDAALSVARDVYNLKSNQAEIVTAYNDAKTLSEEISKLPHNQVNTKDIVTLPYDKNAPAAGQSNYQINPEQQSNLNQALAAMSNNPFKKVGMISSQNNNGA
- glycan array binding signal (z-score) [1]: -0.645
- glycan array binding signal (z-score) [2]: 1.15
- glycan array binding signal (z-score) [3]: -0.924
- glycan array binding signal (z-score) [4]: 0.895
- glycan array binding signal (z-score) [5]: 1.16
- glycan array binding signal (z-score) [6]: 2.39
- glycan array binding signal (z-score) [7]: -0.252
- glycan array binding signal (z-score) [8]: -0.068
- glycan array binding signal (z-score) [9]: 1.21
- glycan array binding signal (z-score) [10]: -0.537
- glycan array binding signal (z-score) [11]: 0.386
- glycan array binding signal (z-score) [12]: -0.485
- glycan array binding signal (z-score) [13]: 0.132
- glycan array binding signal (z-score) [14]: -0.093
- glycan array binding signal (z-score) [15]: 0.398
- glycan array binding signal (z-score) [16]: 0.033
- glycan array binding signal (z-score) [17]: -0.103
- glycan array binding signal (z-score) [18]: 0.175
- glycan array binding signal (z-score) [19]: 0.108
